Assay results published in the supplement of paper PMC6411743.
± gives the standard deviation of the averaged measurements. The list shows a part of the results.

By UniProt entry, the sequences of proteins in these tests, tags left out. Where a name states a change or a piece, a line headed by the entry shows the natural chain unless it says otherwise.
UniProt Q9H9B4: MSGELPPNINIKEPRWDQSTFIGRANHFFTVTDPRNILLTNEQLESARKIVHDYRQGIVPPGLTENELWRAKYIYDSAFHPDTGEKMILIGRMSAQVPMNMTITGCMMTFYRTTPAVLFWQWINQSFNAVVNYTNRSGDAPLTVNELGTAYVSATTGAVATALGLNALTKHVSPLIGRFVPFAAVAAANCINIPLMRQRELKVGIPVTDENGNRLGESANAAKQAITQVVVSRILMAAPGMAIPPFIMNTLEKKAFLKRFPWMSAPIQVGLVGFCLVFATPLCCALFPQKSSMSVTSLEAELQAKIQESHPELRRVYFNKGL
UniProt Q9NPD3, whole entry: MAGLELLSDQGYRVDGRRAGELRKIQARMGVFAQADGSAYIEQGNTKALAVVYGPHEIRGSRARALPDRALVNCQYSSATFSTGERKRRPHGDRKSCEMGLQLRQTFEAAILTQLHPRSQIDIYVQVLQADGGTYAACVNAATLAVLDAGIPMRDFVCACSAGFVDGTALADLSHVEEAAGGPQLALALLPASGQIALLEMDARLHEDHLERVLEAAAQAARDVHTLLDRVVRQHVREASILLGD
UniProt Q9H3R5: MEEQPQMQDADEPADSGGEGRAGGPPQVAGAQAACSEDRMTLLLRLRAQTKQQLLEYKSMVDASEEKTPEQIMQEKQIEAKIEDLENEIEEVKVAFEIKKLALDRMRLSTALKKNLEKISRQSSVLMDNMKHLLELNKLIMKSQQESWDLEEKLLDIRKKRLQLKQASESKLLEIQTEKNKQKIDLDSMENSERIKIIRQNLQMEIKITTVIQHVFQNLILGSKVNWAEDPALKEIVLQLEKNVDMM
UniProt Q9H7N4: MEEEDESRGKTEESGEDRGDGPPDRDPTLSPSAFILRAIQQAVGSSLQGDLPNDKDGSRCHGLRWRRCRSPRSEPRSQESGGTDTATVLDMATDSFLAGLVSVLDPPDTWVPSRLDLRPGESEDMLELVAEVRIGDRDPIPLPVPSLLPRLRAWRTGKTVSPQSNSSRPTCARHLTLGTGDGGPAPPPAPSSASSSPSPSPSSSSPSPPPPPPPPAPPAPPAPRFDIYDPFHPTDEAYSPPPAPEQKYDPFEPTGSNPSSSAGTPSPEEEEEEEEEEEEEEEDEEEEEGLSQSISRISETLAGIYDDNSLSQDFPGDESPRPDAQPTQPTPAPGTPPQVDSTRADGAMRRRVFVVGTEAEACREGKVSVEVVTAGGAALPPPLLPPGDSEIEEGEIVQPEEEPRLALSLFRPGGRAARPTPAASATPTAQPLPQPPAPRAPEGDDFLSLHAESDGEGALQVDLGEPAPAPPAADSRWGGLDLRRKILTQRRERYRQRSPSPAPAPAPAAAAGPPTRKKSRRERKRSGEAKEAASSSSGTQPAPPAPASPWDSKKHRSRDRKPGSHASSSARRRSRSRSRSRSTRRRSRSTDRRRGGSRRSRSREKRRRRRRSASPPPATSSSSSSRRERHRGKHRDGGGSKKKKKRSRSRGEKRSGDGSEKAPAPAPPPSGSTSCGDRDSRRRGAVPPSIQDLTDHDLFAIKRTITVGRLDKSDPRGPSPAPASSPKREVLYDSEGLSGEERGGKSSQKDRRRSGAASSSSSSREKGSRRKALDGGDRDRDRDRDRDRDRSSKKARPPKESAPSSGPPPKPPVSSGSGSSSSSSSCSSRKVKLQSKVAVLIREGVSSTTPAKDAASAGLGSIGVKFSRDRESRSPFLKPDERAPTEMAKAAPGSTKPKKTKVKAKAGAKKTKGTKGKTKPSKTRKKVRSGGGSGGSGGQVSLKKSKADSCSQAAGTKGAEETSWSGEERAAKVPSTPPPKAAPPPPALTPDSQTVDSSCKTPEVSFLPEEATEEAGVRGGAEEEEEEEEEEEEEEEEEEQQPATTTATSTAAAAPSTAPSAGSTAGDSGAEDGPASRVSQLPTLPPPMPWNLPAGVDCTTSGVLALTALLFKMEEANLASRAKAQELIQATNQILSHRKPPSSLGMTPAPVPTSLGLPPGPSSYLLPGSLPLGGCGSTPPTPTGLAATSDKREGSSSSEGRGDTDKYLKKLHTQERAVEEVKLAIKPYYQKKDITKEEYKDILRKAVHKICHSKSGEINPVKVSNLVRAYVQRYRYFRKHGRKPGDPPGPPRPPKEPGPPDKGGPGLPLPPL
UniProt Q9H3K6: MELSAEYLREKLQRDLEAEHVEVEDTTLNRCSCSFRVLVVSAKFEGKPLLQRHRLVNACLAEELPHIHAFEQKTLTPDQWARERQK
UniProt Q9NPL8: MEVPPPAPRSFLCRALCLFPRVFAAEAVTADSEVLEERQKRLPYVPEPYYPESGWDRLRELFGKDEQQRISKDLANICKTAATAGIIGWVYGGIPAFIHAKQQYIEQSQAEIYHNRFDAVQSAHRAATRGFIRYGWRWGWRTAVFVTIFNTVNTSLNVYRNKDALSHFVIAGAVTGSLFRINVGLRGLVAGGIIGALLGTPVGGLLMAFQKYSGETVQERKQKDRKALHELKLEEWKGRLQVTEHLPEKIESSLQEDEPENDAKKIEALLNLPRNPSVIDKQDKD
UniProt Q9HCD5: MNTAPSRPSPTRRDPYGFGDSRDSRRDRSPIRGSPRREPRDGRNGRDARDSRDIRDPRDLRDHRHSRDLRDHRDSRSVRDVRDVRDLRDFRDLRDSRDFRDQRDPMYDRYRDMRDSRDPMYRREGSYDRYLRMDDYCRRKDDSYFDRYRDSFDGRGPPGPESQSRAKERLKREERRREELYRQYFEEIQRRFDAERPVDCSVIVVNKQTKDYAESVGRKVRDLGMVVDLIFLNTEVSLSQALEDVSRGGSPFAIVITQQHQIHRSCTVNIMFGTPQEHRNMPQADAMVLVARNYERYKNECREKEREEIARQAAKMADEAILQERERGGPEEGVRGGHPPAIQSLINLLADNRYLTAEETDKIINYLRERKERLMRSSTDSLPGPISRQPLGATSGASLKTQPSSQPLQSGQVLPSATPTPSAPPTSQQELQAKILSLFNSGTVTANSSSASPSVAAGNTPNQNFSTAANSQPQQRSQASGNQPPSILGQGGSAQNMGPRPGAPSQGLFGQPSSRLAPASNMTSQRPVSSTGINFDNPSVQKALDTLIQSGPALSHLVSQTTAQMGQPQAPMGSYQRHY
UniProt Q9H307: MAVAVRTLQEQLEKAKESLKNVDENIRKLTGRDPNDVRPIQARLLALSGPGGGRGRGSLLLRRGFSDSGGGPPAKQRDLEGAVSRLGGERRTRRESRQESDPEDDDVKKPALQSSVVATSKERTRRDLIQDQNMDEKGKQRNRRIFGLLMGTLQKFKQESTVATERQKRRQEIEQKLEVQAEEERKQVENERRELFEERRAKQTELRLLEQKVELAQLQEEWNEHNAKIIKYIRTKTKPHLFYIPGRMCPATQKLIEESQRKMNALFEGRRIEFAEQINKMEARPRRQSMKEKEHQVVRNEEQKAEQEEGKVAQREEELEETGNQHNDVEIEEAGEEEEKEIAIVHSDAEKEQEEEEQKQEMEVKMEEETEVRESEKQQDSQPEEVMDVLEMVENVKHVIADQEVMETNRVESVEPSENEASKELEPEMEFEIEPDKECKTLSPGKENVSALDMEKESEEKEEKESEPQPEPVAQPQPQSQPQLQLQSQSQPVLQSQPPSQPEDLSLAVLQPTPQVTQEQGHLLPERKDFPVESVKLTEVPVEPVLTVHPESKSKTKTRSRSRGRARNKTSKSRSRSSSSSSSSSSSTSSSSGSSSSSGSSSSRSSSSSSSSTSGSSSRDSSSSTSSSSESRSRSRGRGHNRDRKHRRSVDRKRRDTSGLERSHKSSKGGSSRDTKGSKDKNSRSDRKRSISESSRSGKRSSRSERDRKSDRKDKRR
UniProt Q9H089: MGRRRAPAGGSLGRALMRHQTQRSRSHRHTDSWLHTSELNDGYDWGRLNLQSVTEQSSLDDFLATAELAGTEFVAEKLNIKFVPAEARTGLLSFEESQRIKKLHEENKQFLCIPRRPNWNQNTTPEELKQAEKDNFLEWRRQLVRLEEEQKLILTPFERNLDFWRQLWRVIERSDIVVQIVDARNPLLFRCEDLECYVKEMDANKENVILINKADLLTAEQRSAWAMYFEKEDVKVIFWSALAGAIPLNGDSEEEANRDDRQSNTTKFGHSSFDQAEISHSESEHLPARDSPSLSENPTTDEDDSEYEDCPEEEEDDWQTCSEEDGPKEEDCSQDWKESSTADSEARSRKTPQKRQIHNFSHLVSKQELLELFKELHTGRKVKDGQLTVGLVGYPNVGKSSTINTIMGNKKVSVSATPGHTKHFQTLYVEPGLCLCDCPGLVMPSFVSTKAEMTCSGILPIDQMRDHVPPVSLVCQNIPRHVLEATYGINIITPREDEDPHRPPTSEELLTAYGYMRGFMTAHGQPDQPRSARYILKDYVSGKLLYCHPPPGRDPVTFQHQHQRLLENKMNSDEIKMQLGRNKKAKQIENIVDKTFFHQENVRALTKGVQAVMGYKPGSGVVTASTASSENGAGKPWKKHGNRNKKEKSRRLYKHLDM
UniProt Q9NPG3, whole entry: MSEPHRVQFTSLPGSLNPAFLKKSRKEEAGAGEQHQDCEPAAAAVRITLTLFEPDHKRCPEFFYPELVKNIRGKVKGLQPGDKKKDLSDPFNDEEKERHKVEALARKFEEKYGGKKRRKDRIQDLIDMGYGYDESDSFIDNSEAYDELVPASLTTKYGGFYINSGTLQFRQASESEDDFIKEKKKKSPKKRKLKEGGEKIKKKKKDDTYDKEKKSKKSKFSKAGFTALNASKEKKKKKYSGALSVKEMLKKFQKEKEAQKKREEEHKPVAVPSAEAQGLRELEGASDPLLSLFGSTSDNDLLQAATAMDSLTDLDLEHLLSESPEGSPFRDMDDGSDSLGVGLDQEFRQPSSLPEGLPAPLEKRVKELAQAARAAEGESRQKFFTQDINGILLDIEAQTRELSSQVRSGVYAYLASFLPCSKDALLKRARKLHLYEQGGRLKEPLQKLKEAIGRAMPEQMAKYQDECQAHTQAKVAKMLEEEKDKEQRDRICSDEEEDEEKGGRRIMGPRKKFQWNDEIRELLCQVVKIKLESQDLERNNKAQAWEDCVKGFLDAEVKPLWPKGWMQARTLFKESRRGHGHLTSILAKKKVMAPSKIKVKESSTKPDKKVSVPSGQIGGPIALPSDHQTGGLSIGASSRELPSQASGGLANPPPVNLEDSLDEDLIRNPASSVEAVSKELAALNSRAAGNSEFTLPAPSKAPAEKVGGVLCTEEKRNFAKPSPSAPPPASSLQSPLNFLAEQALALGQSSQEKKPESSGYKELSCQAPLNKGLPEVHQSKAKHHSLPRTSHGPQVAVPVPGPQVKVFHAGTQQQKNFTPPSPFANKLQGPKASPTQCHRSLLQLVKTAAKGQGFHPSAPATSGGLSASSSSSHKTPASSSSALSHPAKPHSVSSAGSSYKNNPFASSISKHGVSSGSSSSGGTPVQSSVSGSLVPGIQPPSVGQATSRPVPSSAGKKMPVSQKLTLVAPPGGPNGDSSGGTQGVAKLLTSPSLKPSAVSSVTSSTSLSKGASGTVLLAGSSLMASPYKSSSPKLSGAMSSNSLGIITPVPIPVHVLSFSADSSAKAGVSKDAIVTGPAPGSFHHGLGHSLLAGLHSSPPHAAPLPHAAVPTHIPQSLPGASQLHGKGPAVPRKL
UniProt Q9BZL1: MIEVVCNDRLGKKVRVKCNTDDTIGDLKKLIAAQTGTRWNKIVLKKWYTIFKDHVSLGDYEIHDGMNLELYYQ
UniProt Q9NRX1: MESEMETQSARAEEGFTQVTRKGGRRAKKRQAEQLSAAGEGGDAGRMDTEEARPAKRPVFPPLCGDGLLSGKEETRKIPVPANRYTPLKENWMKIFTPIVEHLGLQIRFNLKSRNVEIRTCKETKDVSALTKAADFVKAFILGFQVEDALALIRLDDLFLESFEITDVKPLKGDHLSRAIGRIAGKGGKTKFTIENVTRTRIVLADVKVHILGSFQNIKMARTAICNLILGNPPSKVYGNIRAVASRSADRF
UniProt Q9NQ88: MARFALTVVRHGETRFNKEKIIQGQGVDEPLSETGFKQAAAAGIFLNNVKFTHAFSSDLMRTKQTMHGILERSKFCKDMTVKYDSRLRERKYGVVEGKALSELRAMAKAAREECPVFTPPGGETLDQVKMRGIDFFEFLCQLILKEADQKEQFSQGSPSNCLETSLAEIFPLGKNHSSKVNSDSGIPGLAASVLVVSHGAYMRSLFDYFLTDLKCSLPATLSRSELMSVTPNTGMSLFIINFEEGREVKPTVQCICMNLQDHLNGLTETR
UniProt Q9C0F1: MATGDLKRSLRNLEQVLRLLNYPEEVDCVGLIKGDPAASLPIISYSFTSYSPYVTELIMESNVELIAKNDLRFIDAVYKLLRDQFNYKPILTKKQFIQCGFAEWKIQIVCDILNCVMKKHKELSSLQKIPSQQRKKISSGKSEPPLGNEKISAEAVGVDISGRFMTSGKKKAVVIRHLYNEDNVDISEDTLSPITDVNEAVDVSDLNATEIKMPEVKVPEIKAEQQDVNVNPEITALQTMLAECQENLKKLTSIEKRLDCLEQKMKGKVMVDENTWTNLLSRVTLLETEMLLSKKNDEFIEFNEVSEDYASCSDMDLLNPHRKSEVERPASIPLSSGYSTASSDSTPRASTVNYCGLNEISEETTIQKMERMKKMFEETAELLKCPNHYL

compound: Nc1nc2c(ncn2[C@@H]2O[C@H](COP(=O)(O)OP(=O)(O)OP(=O)(O)O)[C@@H](O)[C@H]2O)c(=O)[nH]1 [guanosine triphosphate]; test: NP40-soluble protein abundance relative to vehicle (solubility fold change) (ratio); higher = more soluble protein in presence of GTP; conditions: concentration: 8mM
In short: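 Crude Jurkat lysate, prepared by Dounce homogenisation, was exposed to eight concentrations from 0.1 to 10 mM for 10 min at room temperature and then 3 min at 37 °C. Solubilisation used 0.8% NP40 with benzonase for 60 min at 4 °C, followed by ultracentrifugation and TMT labelling of the supernatant for LC-MS/MS. After vsn normalisation of intensities, each value is the fold change against the detergent-processed vehicle within each replicate, across three independent experiments.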

Target	NP40-soluble protein abundance
RHOF (UniProt Q9HBH0)	0.991 ± 0.033
MRPL44 (UniProt Q9H9J2)	1.35 ± 0.36
FN3KRP (UniProt Q9HA64)	0.89 ± 0.047
SFXN1 (UniProt Q9H9B4)	0.885 ± 0.1
ANLN (UniProt Q9NQW6)	0.971 ± 0.033
EXOSC4 (UniProt Q9NPD3)	1.11 ± 0.089
UniProt Q9C035 and related entries	0.998 ± 0.07
MRPL40 (UniProt Q9NQ50)	1.49 ± 0.42
CENPH (UniProt Q9H3R5)	1.03 ± 0.039
UniProt Q9NR28 and related entries	0.94 ± 0.033
UniProt Q9C0I1 and related entries	0.973 ± 0.025
UniProt Q9H8E8 and related entries	1 ± 0.09
SCAF1 (UniProt Q9H7N4)	1.37 ± 0.076
BOLA2 (UniProt Q9H3K6)	0.927 ± 0.11
UniProt Q9NPL8	0.932 ± 0.04
NCOA5 (UniProt Q9HCD5)	2.15 ± 0.18
UniProt Q9H7Z6	1.17 ± 0.017
KIF13B (UniProt Q9NQT8)	1.04 ± 0.034

Target	NP40-soluble protein abundance
WDR11 (UniProt Q9BZH6)	1 ± 0.15
PNN (UniProt Q9H307)	0.955 ± 0.25
LSG1 (UniProt Q9H089)	1.08 ± 0.096
UniProt Q9C0E8 and related entries	0.916 ± 0.062
YTHDC2 (UniProt Q9H6S0)	1.34 ± 0.23
UniProt Q9NPG3 and related entries	1.17 ± 0.17
DEF6 (UniProt Q9H4E7)	0.926 ± 0.054
UniProt Q9BZL1	1.13 ± 0.19
PNO1 (UniProt Q9NRX1)	1.15 ± 0.28
UniProt Q9H0F6 and related entries	1.04 ± 0.19
UniProt Q9H3H3-2|Q9H3H3-3|Q9H3H3	0.946 ± 0.035
UniProt Q9H6U6 and related entries	0.957 ± 0.043
UniProt Q9NQ88	0.819 ± 0.056
KIF15 (UniProt Q9NS87)	0.958 ± 0.05
JPH1 (UniProt Q9HDC5)	1.18 ± 0.16
UniProt Q9HC38-2|F6TLX2	0.876 ± 0.051
MOV10 (UniProt Q9HCE1)	1.12 ± 0.19
UniProt Q9C0F1	1.05 ± 0.043

same assay, conditions: concentration: 10mM

Target	NP40-soluble protein abundance
RHOF (UniProt Q9HBH0)	1.01 ± 0.072
MRPL44 (UniProt Q9H9J2)	1.24 ± 0.32
FN3KRP (UniProt Q9HA64)	0.868 ± 0.051
SFXN1 (UniProt Q9H9B4)	0.873 ± 0.097
ANLN (UniProt Q9NQW6)	0.993 ± 0.053
EXOSC4 (UniProt Q9NPD3)	1.16 ± 0.054
UniProt Q9C035 and related entries	0.946 ± 0.059
MRPL40 (UniProt Q9NQ50)	1.45 ± 0.45
CENPH (UniProt Q9H3R5)	1.2 ± 0.33
UniProt Q9NR28 and related entries	1.01 ± 0.035
UniProt Q9C0I1 and related entries	0.934 ± 0.022
UniProt Q9H8E8 and related entries	0.969 ± 0.094
SCAF1 (UniProt Q9H7N4)	1.41 ± 0.088
BOLA2 (UniProt Q9H3K6)	0.855 ± 0.071
UniProt Q9NPL8	0.946 ± 0.031
NCOA5 (UniProt Q9HCD5)	2.4 ± 0.19
UniProt Q9H7Z6	1.12 ± 0.0089
KIF13B (UniProt Q9NQT8)	0.964 ± 0.039

Target	NP40-soluble protein abundance
WDR11 (UniProt Q9BZH6)	1.01 ± 0.13
PNN (UniProt Q9H307)	0.97 ± 0.27
LSG1 (UniProt Q9H089)	1.11 ± 0.063
UniProt Q9C0E8 and related entries	0.939 ± 0.028
YTHDC2 (UniProt Q9H6S0)	1.26 ± 0.069
UniProt Q9NPG3 and related entries	1.23 ± 0.068
DEF6 (UniProt Q9H4E7)	0.907 ± 0.068
UniProt Q9BZL1	1.06 ± 0.2
PNO1 (UniProt Q9NRX1)	1.15 ± 0.32
UniProt Q9H0F6 and related entries	1.07 ± 0.1
UniProt Q9H3H3-2|Q9H3H3-3|Q9H3H3	0.923 ± 0.038
UniProt Q9H6U6 and related entries	0.8795 ± 0.0066
UniProt Q9NQ88	0.819 ± 0.08
KIF15 (UniProt Q9NS87)	0.935 ± 0.058
JPH1 (UniProt Q9HDC5)	1.15 ± 0.32
UniProt Q9HC38-2|F6TLX2	0.834 ± 0.09
MOV10 (UniProt Q9HCE1)	1.06 ± 0.19
UniProt Q9C0F1	1.02 ± 0.033
